The record followed here is publication PMC9685459.

By UniProt entry, the sequences of proteins in these tests, tags left out. Residues count along the entry.
UniProt Q13308, 31-1070: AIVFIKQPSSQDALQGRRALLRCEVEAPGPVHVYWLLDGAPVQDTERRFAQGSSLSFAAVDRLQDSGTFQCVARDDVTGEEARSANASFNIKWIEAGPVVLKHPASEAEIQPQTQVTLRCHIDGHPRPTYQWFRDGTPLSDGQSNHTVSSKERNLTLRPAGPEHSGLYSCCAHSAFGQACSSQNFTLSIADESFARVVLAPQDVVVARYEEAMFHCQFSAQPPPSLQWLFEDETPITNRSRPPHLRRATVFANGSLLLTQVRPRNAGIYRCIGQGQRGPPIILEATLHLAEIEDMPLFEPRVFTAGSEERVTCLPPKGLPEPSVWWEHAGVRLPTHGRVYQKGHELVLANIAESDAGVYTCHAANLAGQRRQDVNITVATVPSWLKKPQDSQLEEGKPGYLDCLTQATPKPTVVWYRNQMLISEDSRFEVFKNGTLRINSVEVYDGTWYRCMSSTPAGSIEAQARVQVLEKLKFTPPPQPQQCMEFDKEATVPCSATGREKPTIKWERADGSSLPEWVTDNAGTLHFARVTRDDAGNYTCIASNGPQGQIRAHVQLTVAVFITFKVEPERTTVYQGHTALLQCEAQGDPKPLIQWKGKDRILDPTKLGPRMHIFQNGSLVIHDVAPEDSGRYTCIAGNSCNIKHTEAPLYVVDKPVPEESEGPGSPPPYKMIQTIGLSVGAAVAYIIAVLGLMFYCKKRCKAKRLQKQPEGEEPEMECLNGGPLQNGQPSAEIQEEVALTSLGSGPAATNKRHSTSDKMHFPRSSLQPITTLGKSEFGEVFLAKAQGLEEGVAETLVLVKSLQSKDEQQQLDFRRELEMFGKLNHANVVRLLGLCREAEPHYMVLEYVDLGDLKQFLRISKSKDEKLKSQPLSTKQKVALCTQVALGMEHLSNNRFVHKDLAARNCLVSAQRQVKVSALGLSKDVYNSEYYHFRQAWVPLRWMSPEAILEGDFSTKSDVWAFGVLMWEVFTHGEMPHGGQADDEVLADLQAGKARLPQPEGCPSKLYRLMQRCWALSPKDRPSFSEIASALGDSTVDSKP

The data set has as its target PTK7 (cell-surface receptor on CEM and HeLa cells) (UniProt Q13308). Description: cell imaging (CLSM) and flow cytometry. The settings on record: live-cell incubation (culture medium, 37 °C, 5% CO2, 2 h stated for the HeLa uptake assay of nanoclusters), protein on the cell surface, label: 5' FAM on T, single-stranded DNA.

For at least one entry, the source does not settle the construct or the ends of the probe. At least one result comes from cells or an extract, where the contact may be indirect. A negative result means that nothing was seen under these conditions. At least one verdict rests on a figure or table, not on a statement of the authors.

As to “TTTTTATCTAACTGCTGCGCCGCCGGGAAAATACTGTACGGTTAGA [F-sgc8 (FAM-modified sgc8)]”, the binding result (no signal on PTK7-negative Ramos cells) is reported as “binds”.
For “TTTTTGCGAGTATGTTGTCAACTGCCTTCCACTCTGATATAAACCA [F-Lib (FAM-modified library DNA, single printed sequence)]”, the binding result (no obvious fluorescence) is on record as “no binding”.
